# Measured values published in the supplement of paper PMC8728848.
# The other results are listed elsewhere or left out.
# B1: Endo180d1-D4 (Homo sapiens), Q9UBG0 (protein)
# chain: MGPGRPAPAPWPRHLLRCVLLLGCLHLGRPGAPGDAALPEPNVFLIFSHGLQGCLEAQGGQVRVTPACNTSLPAQRWKWVSRNRLFNLGTMQCLGTGWPGTNTTASLGMYECDREALNLRWHCRTLGDQLSLLLGARTSNISKPGTLERGDQTRSGQWRIYGSEEDLCALPYHEVYTIQGNSHGKPCTIPFKYDNQWFHGCTSTGREDGHLWCATTQDYGKDERWGFCPIKSNDCETFWDKDQLTDSCYQFNFQSTLSWREAWASCEQQGADLLSITEIHEQTYINGLLTGYSSTLWIGLNDLDTSGGWQWSDNSPLKYLNWESDQPDNPSEENCGVIRTESSGGWQNRDCSIALPYVCKKKPNATAEPTPPDRWANVKVECEPSWQPFQGHCYRLQAEKRSWQESKKACLRGGGDLVSIHSMAELEFITKQIKQEVEELWIGLNDLKLQMNFEWSDGSLVSFTHWHPFEPNNFRDSLEDCVTIWGPEGRWNDSPCNQSLPSICKKAGQLSQGAAEEDHGCRKGWTWHSPSCYWLGEDQVTYSEARRLCTDHGSQLVTITNRFEQAFVSSLIYNWEGEYFWTALQDLNSTGSFFWLSGDEVMYTHWNRDQPGYSRGGCVALATGSAMGLWEVKNCTSFRARYICRQSLGTPVTPELPGPDPTPSLTGSCPQGWASDTKLRYCYKVFSSERLQDKKSWVQAQGACQELGAQLLSLASYEEEHFVANMLNKIFGESEPEIHEQHWFWIGLNRRDPRGGQSWRWSDGVGFSYHNFDRSRHDDDDIRGCAVLDLASLQWVAMQCDTQLDWICKIPRGTDVREPDDSPQGRREWLRFQEAEYKFFEHHSTWAQAQRICTWFQAELTSVHSQAELDFLSHNLQKFSRAQEQHWWIGLHTSESDGRFRWTDGSIINFISWAPGKPRPVGKDKKCVYMTASREDWGDQRCLTALPYICKRSNVTKETQPPDLPTTALGGCPSDWIQFLNKCFQVQGQEPQSRVKWSEAQFSCEQQEAQLVTITNPLEQAFITASLPNVTFDLWIGLHASQRDFQWVEQEPLMYANWAPGEPSGPSPAPSGNKPTSCAVVLHSPSAHFTGRWDDRSCTEETHGFICQKGTDPSLSPSPAALPPAPGTELSYLNGTFRLLQKPLRWHDALLLCESHNASLAYVPDPYTQAFLTQAARGLRTPLWIGLAGEEGSRRYSWVSEEPLNYVGWQDGEPQQPGGCTYVDVDGAWRTTSCDTKLQGAVCGVSSGPPPPRRISYHGSCPQGLADSAWIPFREHCYSFHMELLLGHKEARQRCQRAGGAVLSILDEMENVFVWEHLQSYEGQSRGAWLGMNFNPKGGTLVWQDNTAVNYSNWGPPGLGPSMLSHNSCYWIQSNSGLWRPGACTNITMGVVCKLPRAEQSSFSPSALPENPAALVVVLMAVLLLLALLTAALILYRRRQSIERGAFEGARYSRSSSSPTEATEKNILVSDMEMNEQQE
# Legend:
# Assay in all cases: glycan array binding signal (z-score within array); higher = stronger binding
# Details in all cases: glycan notation: IUPAC condensed, linker removed
# [1] = target: Fuc(a1-2)Gal(b1-4)GlcNAc(b1-3)Gal(b1-4)GlcNAc(b1-2)Man(a1-3)[Fuc(a1-2)Gal(b1-4)GlcNAc(b1-3)Gal(b1-4)GlcNAc(b1-2)Man(a1-6)]Man(b1-4)GlcNAc(b1-4)GlcNAc
# Method in brief: (§1)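 Negative Z-scores can be read as non-binding. The Z-score is calculated within each array and then averaged across arrays of one protein sequence at different concentrations or buffers and across linkers. Arrays, 3228 in all, were curated from the Consortium for Functional Glycomics database and kept only where the protein sequence was available.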
# [2] = target: Fuc(a1-2)Gal(b1-4)GlcNAc(b1-3)Gal(b1-4)GlcNAc(b1-3)Gal(b1-4)GlcNAc
# Method in brief: as §1
# [3] = target: Fuc(a1-2)Gal(b1-4)GlcNAc(b1-3)GalNAc
# Method in brief: as §1
# [4] = target: Fuc(a1-2)Gal(b1-4)GlcNAc(b1-3)[Fuc(a1-2)Gal(b1-4)GlcNAc(b1-6)]GalNAc
# Method in brief: as §1
# [5] = target: Fuc(a1-2)Gal(b1-4)GlcNAc(b1-3)[Fuc(a1-3)[Gal(b1-4)]GlcNAc(b1-6)]Gal(b1-4)Glc
# Method in brief: as §1
# [6] = target: Fuc(a1-2)Gal(b1-4)GlcNAc(b1-6)GalNAc
# Method in brief: as §1
# [7] = target: Fuc(a1-2)Gal(b1-4)GlcNAc6S
# Method in brief: as §1
# [8] = target: Fuc(a1-2)Gal(b1-4)[Fuc(a1-3)]GlcNAc
# Method in brief: as §1
# [9] = target: Fuc(a1-2)Gal(b1-4)[Fuc(a1-3)]GlcNAc(b1-2)Man(a1-3)[Fuc(a1-2)Gal(b1-4)[Fuc(a1-3)]GlcNAc(b1-2)Man(a1-6)]Man(b1-4)GlcNAc(b1-4)[Fuc(a1-6)]GlcNAc
# Method in brief: as §1
# [10] = target: Fuc(a1-2)Gal(b1-4)[Fuc(a1-3)]GlcNAc(b1-2)[Fuc(a1-2)Gal(b1-4)[Fuc(a1-3)]GlcNAc(b1-4)]Man(a1-3)[Fuc(a1-2)Gal(b1-4)[Fuc(a1-3)]GlcNAc(b1-2)Man(a1-6)]Man(b1-4)GlcNAc(b1-4)GlcNAc
# Method in brief: as §1
# [11] = target: Fuc(a1-2)Gal(b1-4)[Fuc(a1-3)]GlcNAc(b1-3)Gal(b1-4)[Fuc(a1-3)]GlcNAc
# Method in brief: as §1
# [12] = target: Fuc(a1-2)Gal(b1-4)[Fuc(a1-3)]GlcNAc(b1-3)Gal(b1-4)[Fuc(a1-3)]GlcNAc(b1-3)Gal(b1-4)[Fuc(a1-3)]GlcNAc
# Method in brief: as §1
# [13] = target: Fuc(a1-2)Gal(b1-4)[Fuc(a1-3)]GlcNAc(b1-3)GalNAc
# Method in brief: as §1
# [14] = target: Fuc(a1-2)Gal(b1-4)[Fuc(a1-3)]GlcNAc(b1-3)[Neu5Ac(a2-6)Gal(b1-4)GlcNAc(b1-6)]Gal(b1-4)Glc
# Method in brief: as §1
# [15] = target: Fuc(a1-2)Gal3S(b1-4)GlcNAc
# Method in brief: as §1
# [16] = target: Fuc(a1-2)Gal6S(b1-3)GlcNAc
# Method in brief: as §1
# [17] = target: Fuc(a1-2)Gal6S(b1-3)GlcNAc6S
# Method in brief: as §1
# Fuc(a1-2)Gal6S(b1-4)Glc = target: Fuc(a1-2)Gal6S(b1-4)Glc
# Method in brief: as §1
# [18] = target: Fuc(a1-2)Gal6S(b1-4)Glc6S
# Method in brief: as §1
# Fuc(a1-2)GlcNAc = target: Fuc(a1-2)GlcNAc
# Method in brief: as §1
# Fuc(a1-2)[Gal(a1-3)]Gal = target: Fuc(a1-2)[Gal(a1-3)]Gal
# Method in brief: as §1
# [19] = target: Fuc(a1-2)[Gal(a1-3)]Gal(b1-3)GalNAc
# Method in brief: as §1
# [20] = target: Fuc(a1-2)[Gal(a1-3)]Gal(b1-3)GalNAc(b1-3)Gal(a1-4)Gal(b1-4)Glc
# Method in brief: as §1
# [21] = target: Fuc(a1-2)[Gal(a1-3)]Gal(b1-3)GlcNAc
# Method in brief: as §1
# [22] = target: Fuc(a1-2)[Gal(a1-3)]Gal(b1-3)GlcNAc(b1-2)Man(a1-3)[Fuc(a1-2)[Gal(a1-3)]Gal(b1-3)GlcNAc(b1-2)Man(a1-6)]Man(b1-4)GlcNAc(b1-4)GlcNAc
# Method in brief: as §1
# [23] = target: Fuc(a1-2)[Gal(a1-3)]Gal(b1-3)GlcNAc(b1-2)Man(a1-3)[Fuc(a1-2)[Gal(a1-3)]Gal(b1-3)GlcNAc(b1-2)Man(a1-6)]Man(b1-4)GlcNAc(b1-4)[Fuc(a1-6)]GlcNAc
# Method in brief: as §1
# [24] = target: Fuc(a1-2)[Gal(a1-3)]Gal(b1-3)GlcNAc(b1-3)GalNAc
# Method in brief: as §1
# [25] = target: Fuc(a1-2)[Gal(a1-3)]Gal(b1-3)GlcNAc(b1-6)GalNAc
# Method in brief: as §1
# [26] = target: Fuc(a1-2)[Gal(a1-3)]Gal(b1-4)Glc
# Method in brief: as §1
# [27] = target: Fuc(a1-2)[Gal(a1-3)]Gal(b1-4)GlcNAc
# Method in brief: as §1
# [28] = target: Fuc(a1-2)[Gal(a1-3)]Gal(b1-4)GlcNAc(b1-2)Man
# Method in brief: as §1
# [29] = target: Fuc(a1-2)[Gal(a1-3)]Gal(b1-4)GlcNAc(b1-2)Man(a1-3)[Fuc(a1-2)[Gal(a1-3)]Gal(b1-4)GlcNAc(b1-2)Man(a1-6)]Man(b1-4)GlcNAc(b1-4)GlcNAc
# Method in brief: as §1
# [30] = target: Fuc(a1-2)[Gal(a1-3)]Gal(b1-4)GlcNAc(b1-2)Man(a1-3)[Fuc(a1-2)[Gal(a1-3)]Gal(b1-4)GlcNAc(b1-2)Man(a1-6)]Man(b1-4)GlcNAc(b1-4)[Fuc(a1-6)]GlcNAc
# Method in brief: as §1
# [31] = target: Fuc(a1-2)[Gal(a1-3)]Gal(b1-4)GlcNAc(b1-3)GalNAc
# Method in brief: as §1
# [32] = target: Fuc(a1-2)[Gal(a1-3)]Gal(b1-4)GlcNAc(b1-3)[Fuc(a1-2)[Gal(a1-3)]Gal(b1-4)GlcNAc(b1-6)]GalNAc
# Method in brief: as §1
# [33] = target: Fuc(a1-2)[Gal(a1-3)]Gal(b1-4)GlcNAc(b1-6)GalNAc
# Method in brief: as §1
# [34] = target: Fuc(a1-2)[Gal(a1-3)]Gal(b1-4)[Fuc(a1-3)]Glc
# Method in brief: as §1
# [35] = target: Fuc(a1-2)[Gal(a1-3)]Gal(b1-4)[Fuc(a1-3)]GlcNAc
# Method in brief: as §1
# [36] = target: Fuc(a1-2)[Gal(a1-3)]Gal(b1-4)[Fuc(a1-3)]GlcNAc(b1-3)GalNAc
# Method in brief: as §1
# [37] = target: Fuc(a1-2)[Gal(a1-4)]Gal(b1-4)GlcNAc
# Method in brief: as §1
# [38] = target: Fuc(a1-2)[GalNAc(a1-3)]Gal
# Method in brief: as §1
# [39] = target: Fuc(a1-2)[GalNAc(a1-3)]Gal(b1-3)GalNAc(a1-3)[Fuc(a1-2)]Gal(b1-4)GlcNAc
# Method in brief: as §1
# [40] = target: Fuc(a1-2)[GalNAc(a1-3)]Gal(b1-3)GalNAc(b1-3)Gal(a1-4)Gal(b1-4)Glc
# Method in brief: as §1
# [41] = target: Fuc(a1-2)[GalNAc(a1-3)]Gal(b1-3)GlcNAc
# Method in brief: as §1
# [42] = target: Fuc(a1-2)[GalNAc(a1-3)]Gal(b1-3)GlcNAc(b1-2)Man(a1-3)[Fuc(a1-2)[GalNAc(a1-3)]Gal(b1-3)GlcNAc(b1-2)Man(a1-6)]Man(b1-4)GlcNAc(b1-4)GlcNAc
# Method in brief: as §1
binder,measurement,setting,value
B1,glycan array binding signal (z-score),[1],-1.43
same,glycan array binding signal (z-score),[2],-0.515
same,glycan array binding signal (z-score),[3],-0.326
same,glycan array binding signal (z-score),[4],0.043
same,glycan array binding signal (z-score),[5],2.16
same,glycan array binding signal (z-score),[6],0.241
same,glycan array binding signal (z-score),[7],-0.503
same,glycan array binding signal (z-score),[8],0.153
same,glycan array binding signal (z-score),[9],-0.683
same,glycan array binding signal (z-score),[10],0.707
same,glycan array binding signal (z-score),[11],1.23
same,glycan array binding signal (z-score),[12],-0.015
same,glycan array binding signal (z-score),[13],-0.774
same,glycan array binding signal (z-score),[14],-0.988
same,glycan array binding signal (z-score),[15],-0.383
same,glycan array binding signal (z-score),[16],0.254
same,glycan array binding signal (z-score),[17],0.591
same,glycan array binding signal (z-score),Fuc(a1-2)Gal6S(b1-4)Glc,-0.051
same,glycan array binding signal (z-score),[18],-1.82
same,glycan array binding signal (z-score),Fuc(a1-2)GlcNAc,-0.251
same,glycan array binding signal (z-score),Fuc(a1-2)[Gal(a1-3)]Gal,-0.587
same,glycan array binding signal (z-score),[19],0.04
same,glycan array binding signal (z-score),[20],-0.341
same,glycan array binding signal (z-score),[21],0.125
same,glycan array binding signal (z-score),[22],-0.265
same,glycan array binding signal (z-score),[23],0.622
same,glycan array binding signal (z-score),[24],-0.445
same,glycan array binding signal (z-score),[25],0.628
same,glycan array binding signal (z-score),[26],-0.174
same,glycan array binding signal (z-score),[27],-0.059
same,glycan array binding signal (z-score),[28],-0.69
same,glycan array binding signal (z-score),[29],0.745
same,glycan array binding signal (z-score),[30],-0.162
same,glycan array binding signal (z-score),[31],0.423
same,glycan array binding signal (z-score),[32],0.087
same,glycan array binding signal (z-score),[33],-0.882
same,glycan array binding signal (z-score),[34],-0.887
same,glycan array binding signal (z-score),[35],-0.153
same,glycan array binding signal (z-score),[36],4.86
same,glycan array binding signal (z-score),[37],-0.441
same,glycan array binding signal (z-score),[38],0.152
same,glycan array binding signal (z-score),[39],0.184
same,glycan array binding signal (z-score),[40],-0.342
same,glycan array binding signal (z-score),[41],-0.096
same,glycan array binding signal (z-score),[42],0.287

# In a second layout: entries from further up.
binder	measurement	setting	value
B1	glycan array binding signal (z-score)	[1]	-1.43
same	glycan array binding signal (z-score)	[9]	-0.683
same	glycan array binding signal (z-score)	[40]	-0.342
